# Laboratory results as given in the supplement of paper PMC6411743.
# By UniProt entry, the sequences of proteins in these tests, tags left out. Where a name states a change or a piece, a line headed by the entry shows the natural chain unless it says otherwise.
# UniProt P53007, whole entry, looked up: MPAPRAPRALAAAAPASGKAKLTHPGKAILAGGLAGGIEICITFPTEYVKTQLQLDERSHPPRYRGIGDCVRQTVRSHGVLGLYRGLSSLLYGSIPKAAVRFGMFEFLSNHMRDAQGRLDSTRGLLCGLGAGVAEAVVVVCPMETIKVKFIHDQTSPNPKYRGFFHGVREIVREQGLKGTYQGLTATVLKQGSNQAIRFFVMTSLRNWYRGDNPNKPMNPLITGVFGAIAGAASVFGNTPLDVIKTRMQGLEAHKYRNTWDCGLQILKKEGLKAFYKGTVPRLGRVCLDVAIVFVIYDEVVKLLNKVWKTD
# UniProt P78371: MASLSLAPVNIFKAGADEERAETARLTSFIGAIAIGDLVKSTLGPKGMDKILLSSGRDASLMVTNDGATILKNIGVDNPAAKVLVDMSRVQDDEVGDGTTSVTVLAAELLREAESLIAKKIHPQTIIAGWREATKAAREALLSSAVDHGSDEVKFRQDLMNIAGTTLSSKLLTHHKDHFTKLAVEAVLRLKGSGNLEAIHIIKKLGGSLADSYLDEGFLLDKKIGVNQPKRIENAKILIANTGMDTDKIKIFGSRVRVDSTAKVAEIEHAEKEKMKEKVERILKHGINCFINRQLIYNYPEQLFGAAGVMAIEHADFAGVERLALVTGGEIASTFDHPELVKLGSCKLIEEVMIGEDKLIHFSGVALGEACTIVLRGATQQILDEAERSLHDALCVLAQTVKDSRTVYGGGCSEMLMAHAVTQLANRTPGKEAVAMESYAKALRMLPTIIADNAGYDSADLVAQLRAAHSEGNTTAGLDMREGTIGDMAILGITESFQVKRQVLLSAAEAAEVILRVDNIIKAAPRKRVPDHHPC
# UniProt P61019: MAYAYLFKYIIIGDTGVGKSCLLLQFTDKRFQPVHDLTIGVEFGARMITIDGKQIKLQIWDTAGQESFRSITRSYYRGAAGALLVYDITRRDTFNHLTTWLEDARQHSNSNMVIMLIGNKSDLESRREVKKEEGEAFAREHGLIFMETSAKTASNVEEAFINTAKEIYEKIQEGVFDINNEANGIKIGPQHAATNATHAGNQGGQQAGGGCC
# UniProt P82909: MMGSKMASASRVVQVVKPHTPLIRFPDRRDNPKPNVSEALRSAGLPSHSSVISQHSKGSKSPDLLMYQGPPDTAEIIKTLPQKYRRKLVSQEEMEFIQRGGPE
# UniProt P54277: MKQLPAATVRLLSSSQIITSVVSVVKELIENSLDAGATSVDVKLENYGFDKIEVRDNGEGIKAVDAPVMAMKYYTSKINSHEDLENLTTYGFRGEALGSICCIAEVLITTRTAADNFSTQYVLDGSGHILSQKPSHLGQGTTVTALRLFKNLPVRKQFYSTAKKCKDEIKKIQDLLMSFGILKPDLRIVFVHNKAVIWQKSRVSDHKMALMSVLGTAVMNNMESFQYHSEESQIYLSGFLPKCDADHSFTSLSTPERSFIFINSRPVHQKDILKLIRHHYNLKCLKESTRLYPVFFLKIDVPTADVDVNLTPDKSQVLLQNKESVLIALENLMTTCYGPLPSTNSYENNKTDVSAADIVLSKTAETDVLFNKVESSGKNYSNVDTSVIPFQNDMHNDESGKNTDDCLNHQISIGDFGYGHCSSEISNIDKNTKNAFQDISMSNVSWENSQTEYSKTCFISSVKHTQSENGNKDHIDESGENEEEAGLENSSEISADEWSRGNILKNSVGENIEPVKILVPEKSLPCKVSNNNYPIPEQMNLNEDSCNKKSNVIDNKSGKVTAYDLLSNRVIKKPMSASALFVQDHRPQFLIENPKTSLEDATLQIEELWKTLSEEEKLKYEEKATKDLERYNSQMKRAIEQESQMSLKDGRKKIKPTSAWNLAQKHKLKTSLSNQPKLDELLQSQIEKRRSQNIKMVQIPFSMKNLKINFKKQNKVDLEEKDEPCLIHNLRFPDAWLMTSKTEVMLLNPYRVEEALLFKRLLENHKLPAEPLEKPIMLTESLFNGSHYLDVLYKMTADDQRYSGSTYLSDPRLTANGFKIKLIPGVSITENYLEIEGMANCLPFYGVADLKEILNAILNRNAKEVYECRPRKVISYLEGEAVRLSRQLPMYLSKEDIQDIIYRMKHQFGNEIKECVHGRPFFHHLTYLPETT
# UniProt P53634: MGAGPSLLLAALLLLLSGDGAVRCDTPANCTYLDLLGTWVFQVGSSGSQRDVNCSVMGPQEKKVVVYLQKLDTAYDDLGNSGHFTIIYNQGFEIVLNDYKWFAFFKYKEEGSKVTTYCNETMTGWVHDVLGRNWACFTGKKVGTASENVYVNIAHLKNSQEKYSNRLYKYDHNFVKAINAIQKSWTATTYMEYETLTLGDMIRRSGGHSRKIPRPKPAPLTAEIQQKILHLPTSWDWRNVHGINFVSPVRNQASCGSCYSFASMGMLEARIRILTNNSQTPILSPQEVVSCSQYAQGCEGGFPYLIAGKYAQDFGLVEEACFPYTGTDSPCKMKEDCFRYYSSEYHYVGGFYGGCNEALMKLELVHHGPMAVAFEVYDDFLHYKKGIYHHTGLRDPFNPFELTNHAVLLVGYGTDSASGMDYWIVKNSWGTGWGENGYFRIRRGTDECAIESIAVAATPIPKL
# UniProt Q00688: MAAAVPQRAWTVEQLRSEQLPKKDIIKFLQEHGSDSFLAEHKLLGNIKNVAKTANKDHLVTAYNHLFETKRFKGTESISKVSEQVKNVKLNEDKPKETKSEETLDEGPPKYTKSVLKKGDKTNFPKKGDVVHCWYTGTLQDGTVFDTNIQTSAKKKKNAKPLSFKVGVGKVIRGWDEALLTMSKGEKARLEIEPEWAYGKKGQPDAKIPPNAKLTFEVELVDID
# UniProt P78417: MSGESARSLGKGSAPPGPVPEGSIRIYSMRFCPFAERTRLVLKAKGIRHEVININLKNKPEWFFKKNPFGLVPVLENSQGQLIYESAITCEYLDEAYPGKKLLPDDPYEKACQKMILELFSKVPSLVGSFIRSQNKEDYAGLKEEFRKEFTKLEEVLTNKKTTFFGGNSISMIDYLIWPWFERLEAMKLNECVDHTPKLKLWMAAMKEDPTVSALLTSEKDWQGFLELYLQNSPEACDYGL
# UniProt P61604, whole entry: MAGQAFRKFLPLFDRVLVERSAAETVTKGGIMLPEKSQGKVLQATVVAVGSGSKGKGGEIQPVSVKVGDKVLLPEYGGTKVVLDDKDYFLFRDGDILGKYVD
# UniProt P78346: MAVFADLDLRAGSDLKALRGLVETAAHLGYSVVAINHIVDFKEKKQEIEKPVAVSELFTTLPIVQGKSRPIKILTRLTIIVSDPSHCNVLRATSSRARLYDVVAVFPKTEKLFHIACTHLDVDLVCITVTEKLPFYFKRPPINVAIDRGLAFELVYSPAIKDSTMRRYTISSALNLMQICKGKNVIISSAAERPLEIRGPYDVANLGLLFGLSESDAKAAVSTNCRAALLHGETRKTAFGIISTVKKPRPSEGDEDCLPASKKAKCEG
# UniProt P62306, whole entry, looked up: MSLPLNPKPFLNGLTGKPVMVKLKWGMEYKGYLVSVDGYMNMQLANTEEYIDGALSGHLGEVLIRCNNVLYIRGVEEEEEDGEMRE
# UniProt P61968: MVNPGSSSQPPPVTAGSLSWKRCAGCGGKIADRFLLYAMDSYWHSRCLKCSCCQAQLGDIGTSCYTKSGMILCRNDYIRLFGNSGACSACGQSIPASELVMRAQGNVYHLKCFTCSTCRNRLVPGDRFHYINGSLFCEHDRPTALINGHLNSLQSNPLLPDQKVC
# UniProt P62140, whole entry: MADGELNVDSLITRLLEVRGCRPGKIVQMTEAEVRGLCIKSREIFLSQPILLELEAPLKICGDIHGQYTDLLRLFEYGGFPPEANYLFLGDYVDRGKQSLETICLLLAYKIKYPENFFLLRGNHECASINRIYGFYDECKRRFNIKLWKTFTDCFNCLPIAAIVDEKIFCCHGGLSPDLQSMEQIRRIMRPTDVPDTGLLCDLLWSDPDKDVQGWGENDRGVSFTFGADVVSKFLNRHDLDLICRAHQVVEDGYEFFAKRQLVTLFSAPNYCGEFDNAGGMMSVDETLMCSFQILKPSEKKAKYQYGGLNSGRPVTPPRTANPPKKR
# UniProt P61026: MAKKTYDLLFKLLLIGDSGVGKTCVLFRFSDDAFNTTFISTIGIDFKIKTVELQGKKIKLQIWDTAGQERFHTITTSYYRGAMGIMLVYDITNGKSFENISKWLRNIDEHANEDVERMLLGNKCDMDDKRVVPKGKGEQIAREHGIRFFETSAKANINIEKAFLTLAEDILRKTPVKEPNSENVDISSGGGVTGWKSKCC
# UniProt P53602: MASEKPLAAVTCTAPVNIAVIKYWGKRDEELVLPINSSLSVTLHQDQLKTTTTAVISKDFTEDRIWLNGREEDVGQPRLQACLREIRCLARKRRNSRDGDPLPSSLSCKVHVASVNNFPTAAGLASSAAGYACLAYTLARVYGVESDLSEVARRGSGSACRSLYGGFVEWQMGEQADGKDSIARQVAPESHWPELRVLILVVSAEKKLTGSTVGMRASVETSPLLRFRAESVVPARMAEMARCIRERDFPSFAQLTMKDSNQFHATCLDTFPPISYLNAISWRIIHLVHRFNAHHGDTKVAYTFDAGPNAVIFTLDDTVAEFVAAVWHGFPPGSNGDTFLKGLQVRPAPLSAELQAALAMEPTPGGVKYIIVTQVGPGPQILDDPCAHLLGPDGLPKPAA
# UniProt P62834: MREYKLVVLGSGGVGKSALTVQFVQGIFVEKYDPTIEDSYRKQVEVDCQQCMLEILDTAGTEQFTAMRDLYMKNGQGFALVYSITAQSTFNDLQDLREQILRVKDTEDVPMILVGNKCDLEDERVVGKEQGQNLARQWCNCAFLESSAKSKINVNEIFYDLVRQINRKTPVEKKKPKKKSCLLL
# UniProt P61289: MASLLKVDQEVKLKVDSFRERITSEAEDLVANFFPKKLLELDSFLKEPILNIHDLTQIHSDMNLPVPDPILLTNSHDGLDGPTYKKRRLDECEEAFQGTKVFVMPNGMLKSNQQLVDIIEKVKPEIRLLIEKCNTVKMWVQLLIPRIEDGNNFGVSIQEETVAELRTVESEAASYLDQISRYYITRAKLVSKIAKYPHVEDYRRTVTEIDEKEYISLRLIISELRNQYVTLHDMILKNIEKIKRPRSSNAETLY
# UniProt P56181: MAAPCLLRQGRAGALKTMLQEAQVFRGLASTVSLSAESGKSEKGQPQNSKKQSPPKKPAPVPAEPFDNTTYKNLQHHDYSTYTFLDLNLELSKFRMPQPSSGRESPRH
# UniProt P57088: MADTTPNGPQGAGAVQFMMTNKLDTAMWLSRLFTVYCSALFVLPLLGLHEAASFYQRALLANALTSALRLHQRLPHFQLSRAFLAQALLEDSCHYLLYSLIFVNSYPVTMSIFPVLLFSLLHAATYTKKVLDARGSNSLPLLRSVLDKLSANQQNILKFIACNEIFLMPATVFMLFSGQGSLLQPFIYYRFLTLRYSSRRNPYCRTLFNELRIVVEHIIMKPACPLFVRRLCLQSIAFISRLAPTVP
# UniProt P86790: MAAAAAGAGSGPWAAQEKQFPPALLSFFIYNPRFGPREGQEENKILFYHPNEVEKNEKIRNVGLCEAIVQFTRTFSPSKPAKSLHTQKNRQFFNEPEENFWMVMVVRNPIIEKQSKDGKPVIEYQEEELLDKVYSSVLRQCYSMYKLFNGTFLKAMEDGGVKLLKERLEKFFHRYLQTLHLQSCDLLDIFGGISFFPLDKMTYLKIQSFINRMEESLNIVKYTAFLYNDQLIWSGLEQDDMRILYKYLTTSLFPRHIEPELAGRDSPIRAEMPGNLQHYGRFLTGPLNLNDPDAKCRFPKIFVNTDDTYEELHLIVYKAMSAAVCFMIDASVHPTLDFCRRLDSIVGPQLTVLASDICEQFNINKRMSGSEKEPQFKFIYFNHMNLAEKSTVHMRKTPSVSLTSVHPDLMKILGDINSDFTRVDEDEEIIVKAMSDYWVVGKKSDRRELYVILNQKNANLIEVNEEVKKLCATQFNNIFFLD
# UniProt P86791: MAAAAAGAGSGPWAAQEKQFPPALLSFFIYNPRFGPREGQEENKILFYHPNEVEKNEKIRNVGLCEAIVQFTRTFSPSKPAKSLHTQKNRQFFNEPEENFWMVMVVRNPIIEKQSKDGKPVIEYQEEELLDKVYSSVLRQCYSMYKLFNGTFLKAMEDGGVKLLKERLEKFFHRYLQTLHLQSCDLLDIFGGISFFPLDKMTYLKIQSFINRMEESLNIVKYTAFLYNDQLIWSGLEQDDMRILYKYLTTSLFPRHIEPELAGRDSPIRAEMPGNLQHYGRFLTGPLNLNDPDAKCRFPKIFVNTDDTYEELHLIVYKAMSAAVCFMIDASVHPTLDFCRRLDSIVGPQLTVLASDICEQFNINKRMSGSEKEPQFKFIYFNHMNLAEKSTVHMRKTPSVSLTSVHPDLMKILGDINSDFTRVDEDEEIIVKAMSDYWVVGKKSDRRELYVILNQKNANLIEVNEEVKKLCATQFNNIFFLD
# UniProt P62258: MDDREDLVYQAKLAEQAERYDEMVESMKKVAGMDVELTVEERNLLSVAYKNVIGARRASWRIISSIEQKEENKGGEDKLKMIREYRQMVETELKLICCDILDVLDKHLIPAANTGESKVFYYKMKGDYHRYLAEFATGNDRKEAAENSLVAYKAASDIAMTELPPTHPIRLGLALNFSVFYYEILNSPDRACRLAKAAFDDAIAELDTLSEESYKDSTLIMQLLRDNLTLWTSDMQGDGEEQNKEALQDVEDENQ
# ± gives the standard deviation of the averaged measurements. This is a selection; strong and weak results do not stand in their true shares.
# Compound: Nc1ncnc2c1ncn2[C@@H]1O[C@H](COP(=O)(O)OP(=O)(O)OP(=O)(O)O)[C@@H](O)[C@H]1O [adenosine triphosphate]
# Experiment: NP40-soluble protein abundance relative to vehicle (solubility fold change) (ratio); higher = more soluble protein in presence of ATP
# How it was run: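 Eight concentrations, 0.1 to 10 mM, were tested on Jurkat crude lysate for 10 min at room temperature and then 3 min at 37 °C, in three independent experiments. The lysate was solubilised with 0.8% NP40 and benzonase, ultracentrifuged, and the supernatant TMT-labelled for LC-MS/MS. Each value is the fold change against the detergent-processed vehicle in its own replicate, from vsn-normalised intensities.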
Target,NP40-soluble protein abundance (concentration: 1mM),NP40-soluble protein abundance (concentration: 2mM),NP40-soluble protein abundance (concentration: 4mM),NP40-soluble protein abundance (concentration: 6mM),NP40-soluble protein abundance (concentration: 8mM),NP40-soluble protein abundance (concentration: 10mM)
SLC25A1 (UniProt P53007),0.974 ± 0.11,0.962 ± 0.021,0.919 ± 0.033,0.87 ± 0.045,1.01 ± 0.092,1.06 ± 0.074
CCT2 (UniProt P78371),1.01 ± 0.034,0.926 ± 0.031,0.85 ± 0.029,0.87 ± 0.12,0.872 ± 0.058,0.836 ± 0.048
UniProt P62269,0.854 ± 0.076,0.832 ± 0.097,0.784 ± 0.093,0.726 ± 0.092,0.658 ± 0.12,0.727 ± 0.084
UniProt P61019 and related entries,1.04 ± 0.1,1.02 ± 0.073,0.976 ± 0.075,0.986 ± 0.07,0.964 ± 0.068,0.965 ± 0.065
MRPS36 (UniProt P82909),0.996 ± 0.16,0.963 ± 0.19,1.02 ± 0.099,1.1 ± 0.18,0.936 ± 0.093,0.935 ± 0.16
UniProt P62913 and related entries,0.974 ± 0.12,0.925 ± 0.097,0.869 ± 0.092,0.863 ± 0.1,0.746 ± 0.12,0.913 ± 0.082
UniProt P54277 and related entries,1.25 ± 0.027,1.27 ± 0.075,1.35 ± 0.058,1.32 ± 0.08,1.31 ± 0.049,1.28 ± 0.05
METAP1 (UniProt P53582),1.14 ± 0.029,1.12 ± 0.063,1.18 ± 0.066,1.26 ± 0.14,1.32 ± 0.1,1.31 ± 0.075
CTSC (UniProt P53634),0.991 ± 0.11,0.989 ± 0.078,0.97 ± 0.095,0.976 ± 0.076,0.956 ± 0.059,0.927 ± 0.074
FKBP3 (UniProt Q00688),0.977 ± 0.074,0.954 ± 0.021,0.908 ± 0.025,0.998 ± 0.022,0.918 ± 0.033,0.934 ± 0.049
UniProt P55060 and related entries,0.916 ± 0.046,0.942 ± 0.066,0.916 ± 0.041,0.872 ± 0.057,0.885 ± 0.035,0.912 ± 0.037
GSTO1 (UniProt P78417),0.956 ± 0.08,0.938 ± 0.058,0.897 ± 0.055,0.901 ± 0.088,0.914 ± 0.04,0.879 ± 0.052
UniProt P61604 and related entries,0.887 ± 0.13,0.857 ± 0.059,0.852 ± 0.042,0.905 ± 0.079,0.832 ± 0.019,0.832 ± 0.044
FOXK1 (UniProt P85037),0.997 ± 0.072,1 ± 0.061,1.01 ± 0.078,1.03 ± 0.093,0.972 ± 0.07,1 ± 0.068
UniProt P78346 and related entries,1.03 ± 0.12,0.979 ± 0.073,1.01 ± 0.066,1 ± 0.12,1.04 ± 0.041,1.04 ± 0.026
UniProt P55265 and related entries,1.1 ± 0.029,1.09 ± 0.014,1.11 ± 0.014,1.156 ± 0.0046,1.19 ± 0.02,1.21 ± 0.043
UniProt P62306,1.02 ± 0.055,1.12 ± 0.045,1.17 ± 0.06,1.33 ± 0.07,1.3 ± 0.076,1.3 ± 0.038
LMO4 (UniProt P61968),0.861 ± 0.02,0.963 ± 0.013,0.924 ± 0.017,0.852 ± 0.059,0.96 ± 0.021,0.976 ± 0.04
UniProt P62140,1 ± 0.034,0.989 ± 0.011,1.01 ± 0.065,1 ± 0.051,1.04 ± 0.043,1.06 ± 0.03
UniProt P61026,0.935 ± 0.044,0.914 ± 0.036,0.901 ± 0.033,0.893 ± 0.069,0.8817 ± 0.0051,0.903 ± 0.015
MVD (UniProt P53602),0.965 ± 0.065,1 ± 0.058,0.955 ± 0.027,0.911 ± 0.068,0.951 ± 0.017,0.945 ± 0.032
UniProt P62834,1.06 ± 0.048,1.03 ± 0.021,1.05 ± 0.084,1.09 ± 0.051,1.02 ± 0.099,1.03 ± 0.11
UniProt P61289 and related entries,1.1 ± 0.3,0.773 ± 0.33,1.05 ± 0.27,0.727 ± 0.3,0.886 ± 0.02,0.704 ± 0.29
UniProt P56181 and related entries,0.984 ± 0.039,0.945 ± 0.031,0.931 ± 0.029,0.967 ± 0.09,0.93 ± 0.036,0.926 ± 0.025
UniProt P57088 and related entries,0.851 ± 0.1,0.96 ± 0.13,0.924 ± 0.069,0.784 ± 0.069,0.914 ± 0.093,1 ± 0.12
UniProt P62851,0.924 ± 0.19,0.814 ± 0.14,0.799 ± 0.2,0.79 ± 0.23,0.555 ± 0.1,0.797 ± 0.21
P86790 and related entries (UniProt P86791+P86790),1.02 ± 0.065,1.01 ± 0.038,1.02 ± 0.021,0.974 ± 0.088,1.03 ± 0.033,0.994 ± 0.037
UniProt P61964,0.966 ± 0.049,0.972 ± 0.02,0.986 ± 0.033,0.929 ± 0.036,0.993 ± 0.033,1.03 ± 0.017
UniProt P62258,0.945 ± 0.027,0.9459 ± 0.0072,0.9189 ± 0.0077,0.9464 ± 0.0075,0.922 ± 0.013,0.898 ± 0.041
P68032 and related entries (UniProt P68133+P68032),1.136 ± 0.0035,1.09 ± 0.038,1.07 ± 0.049,1.11 ± 0.058,1.11 ± 0.083,1.09 ± 0.014

# Reprinted at random: two entries already listed, in no set order.
Target,NP40-soluble protein abundance (concentration: 1mM),NP40-soluble protein abundance (concentration: 2mM),NP40-soluble protein abundance (concentration: 4mM),NP40-soluble protein abundance (concentration: 6mM),NP40-soluble protein abundance (concentration: 8mM),NP40-soluble protein abundance (concentration: 10mM)
LMO4 (UniProt P61968),0.861 ± 0.02,0.963 ± 0.013,0.924 ± 0.017,0.852 ± 0.059,0.96 ± 0.021,0.976 ± 0.04
UniProt P78346 and related entries,1.03 ± 0.12,0.979 ± 0.073,1.01 ± 0.066,1 ± 0.12,1.04 ± 0.041,1.04 ± 0.026
